No constants are given. Whether binding was seen depends on the method and setting. Some binding calls cover weakened binding; strength is not graded here.
Target: Brucella abortus PdhS histidine kinase fused to the mCherry fluorescent protein (Brucella abortus) (UniProt Q2YRB4)
Assay: SEC

Sequences of proteins named here, by UniProt entry; tags and fusion partners are left off.
UniProt Q2YRB4: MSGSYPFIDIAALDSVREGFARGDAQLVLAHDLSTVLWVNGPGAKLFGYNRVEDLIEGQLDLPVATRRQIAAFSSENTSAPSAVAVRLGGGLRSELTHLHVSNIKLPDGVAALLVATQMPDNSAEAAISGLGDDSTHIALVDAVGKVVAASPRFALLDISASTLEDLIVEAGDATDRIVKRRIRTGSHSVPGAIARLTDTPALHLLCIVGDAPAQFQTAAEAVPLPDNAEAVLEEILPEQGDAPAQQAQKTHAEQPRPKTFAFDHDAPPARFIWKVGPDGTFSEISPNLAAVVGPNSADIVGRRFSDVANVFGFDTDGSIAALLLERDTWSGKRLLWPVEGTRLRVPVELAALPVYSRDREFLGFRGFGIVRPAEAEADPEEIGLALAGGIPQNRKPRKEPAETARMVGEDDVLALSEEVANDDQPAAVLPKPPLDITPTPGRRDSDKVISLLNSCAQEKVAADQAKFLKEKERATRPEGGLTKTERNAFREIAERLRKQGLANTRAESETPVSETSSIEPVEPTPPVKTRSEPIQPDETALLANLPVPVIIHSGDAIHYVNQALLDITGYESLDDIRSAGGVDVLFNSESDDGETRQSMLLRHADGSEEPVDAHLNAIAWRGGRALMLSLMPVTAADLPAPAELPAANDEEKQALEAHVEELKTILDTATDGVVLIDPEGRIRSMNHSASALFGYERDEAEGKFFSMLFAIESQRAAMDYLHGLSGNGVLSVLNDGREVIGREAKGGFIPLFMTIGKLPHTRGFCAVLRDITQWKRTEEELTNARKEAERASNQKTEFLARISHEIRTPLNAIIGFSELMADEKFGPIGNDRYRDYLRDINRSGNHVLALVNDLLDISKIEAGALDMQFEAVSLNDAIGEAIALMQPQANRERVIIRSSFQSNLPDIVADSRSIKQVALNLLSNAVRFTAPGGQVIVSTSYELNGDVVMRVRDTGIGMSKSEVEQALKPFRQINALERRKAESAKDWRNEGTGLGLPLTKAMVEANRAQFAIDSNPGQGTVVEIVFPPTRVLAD

Brucella abortus PdhS histidine kinase fused to the mCherry fluorescent protein (from UniProt Q2YRB4 1-1035)
binding: binds
